# Cleaved PARP after 72 h of treatment

From a melanoma drug combination screen (doi:10.1371/journal.pone.0140310); values rounded.

Drugs:
tanespimycin: C=CCNC1=C2C[C@@H](C)C[C@H](OC)[C@H](O)[C@@H](C)/C=C(\C)[C@H](OC(N)=O)[C@@H](OC)/C=C\C=C(/C)C(=O)NC(=CC1=O)C2=O at 0.01 µM
A-769662: N#Cc1c(O)c2c(-c3ccc(-c4ccccc4O)cc3)csc2[nH]c1=O at 10 µM
embelin: CCCCCCCCCCCC1=C(O)C(=O)C=C(O)C1=O at 6 µM
STA-4783: CN(NC(=O)CC(=O)NN(C)C(=S)c1ccccc1)C(=S)c1ccccc1 at 0.03 µM
lenalidomide: Nc1cccc2c1CN(C1CCC(=O)NC1=O)C2=O (stereo not drawn) at 5 µM
lestaurtinib: C[C@]12O[C@H](C[C@]1(O)CO)n1c3ccccc3c3c4c(c5c6ccccc6n2c5c31)CNC4=O at 0.02 µM
KU-0063794: COc1ccc(-c2ccc3c(N4CCOCC4)nc(N4C[C@@H](C)O[C@@H](C)C4)nc3n2)cc1CO at 0.1 µM
dasatinib: Cc1nc(Nc2ncc(C(=O)Nc3c(C)cccc3Cl)s2)cc(N2CCN(CCO)CC2)n1 at 0.02 µM

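The test systems are human melanoma cell lines, treated with two drugs together for 72 h and then stained and imaged. Each value is the cleaved-PARP-positive fraction of nuclei relative to DMSO-treated wells, in %, so that 100 equals the control and higher values mean more apoptosis. Every drug was used at one fixed concentration, the higher of two screened. These are primary screening values without error estimates. Basal and induced levels differ widely between cell lines.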
This is part of the screen, not chosen by result.

Combination | WM1716 | MeWo | WM3526 | SK-MEL-2 | UACC-62 | IST-MEL1
embelin + dasatinib | 181 | 63.8 | 96.8 | 74.6 | 220 | 127
KU-0063794 + tanespimycin | 70.8 | 84.9 | 177 | 131 | 289 | 50.6
lestaurtinib + KU-0063794 | 61.1 | 146 | 317 | 79.9 | 409 | 131
STA-4783 + KU-0063794 | 98.8 | 253 | 163 | 103 | 235 | 89.8
tanespimycin + A-769662 | 98.1 | 160 | 386 | 123 | 303 | 196
lenalidomide + dasatinib | 168 | 119 | 108 | 175 | 308 | 107
lenalidomide + A-769662 | 51.6 | 88.2 | 116 | 79.9 | 81.9 | 114
lestaurtinib + dasatinib | 289 | 104 | 79.1 | 184 | 155 | 73.3
lenalidomide + tanespimycin | 107 | 120 | 227 | 123 | 257 | 232
lestaurtinib + STA-4783 | 40.0 | 851 | 228 | 43.3 | 157 | 3820
KU-0063794 + embelin | 87.8 | 182 | 108 | 105 | 109 | 115
lestaurtinib + embelin | 62.8 | 54.3 | 70.4 | 270 | 186 | 85.1
KU-0063794 + lenalidomide | 47.6 | 79.0 | 94.5 | 140 | 126 | 65.6
embelin + lenalidomide | 169 | 106 | 18.0 | 127 | 171 | 50.8
lenalidomide + STA-4783 | 104 | 1830 | 47.0 | 78.1 | 121 | 580
embelin + A-769662 | 47.3 | 40.1 | 93.8 | 68.8 | 44.4 | 48.4
STA-4783 + A-769662 | 20.9 | 638 | 70.6 | 123 | 345 | 870
tanespimycin + dasatinib | 51.6 | 110 | 391 | 125 | 262 | 56.8
KU-0063794 + dasatinib | 309 | 64.0 | 101 | 95.0 | 283 | 167
lestaurtinib + lenalidomide | 26.6 | 121 | 256 | 142 | 90.1 | 162
STA-4783 + embelin | 92.8 | 774 | 71.1 | 190 | 166 | 192
STA-4783 + dasatinib | 416 | 2010 | 210 | 146 | 201 | 974
embelin + tanespimycin | 361 | 333 | 163 | 113 | 198 | 328